# Values from PubChem BioAssay AID1053208 (Peter MacCallum Cancer Centre, 2014).
# Aim: 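Synthetic lethal interactions between gene loss and doxorubicin in osteosarcoma cells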 (primary screen)
# Cell system: mouse osteosarcoma cells, early-passage culture from an engineered mouse model of fibroblastic bone tumour
# Reagent: siRNA pool against mouse genes, 40 nM
# Timing: about 120 h (48 h before drug, then 72 h with drug)
# Challenge: doxorubicin 100 nM for 72 h, roughly 30-40% inhibitory dose
# Detection: 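Luminescent ATP signal taken as viability with or without 100 nM doxorubicin for 72 h; mean of two wells set against non-targeting siRNA and turned into robust z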
# Direction: viability z-score with doxorubicin and doxorubicin viability vs non-targeting: higher = more viable cells under doxorubicin; viability z-score without drug: higher = more viable cells with knock-down alone; z-score of drug to no-drug ratio: higher = less drug sensitisation by knock-down
# Rule for the call: 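a pool counts as active when its viability z-score with doxorubicin is -2 or below and its z-score without drug lies between -2 and 2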
# This is one part, drawn at random, of about 17,000 reagents. 788 of all reagents (4.7%) count as active. 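Calls rest on z-score classes alone; an extra cut-off of viability at most 70% of control was not applied to them.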
gene knocked down,combined z-score class,viability z-score with doxorubicin,viability z-score without drug,z-score of drug to no-drug ratio,doxorubicin viability vs non-targeting,Outcome
Zfp57,high cell count without drug only,1.12,2.53,-0.34,1.04,inactive
Retreg1,no change with or without drug,-1.57,1.52,-2.36,0.8,inactive
Serpina10,no change with or without drug,-1.01,0.34,-1.12,0.85,inactive
Adam26a,no change with or without drug,-0.11,0.51,-0.34,0.93,inactive
Spint4,high cell count without drug only,0.9,2.02,-0.34,1.02,inactive
4632434I11RIK,no change with or without drug,0.56,0.51,0.34,0.99,inactive
Cnpy3,no change with or without drug,-1.57,-1.01,-0.9,0.8,inactive
Tal2,no change with or without drug,-1.57,0.17,-1.69,0.8,inactive
Atpaf1,no change with or without drug,0.11,-0.17,0.34,0.95,inactive
Paf1,low cell count with doxorubicin only,-2.25,1.18,-2.81,0.74,active
Gps1,no change with or without drug,0.45,-0.51,1.01,0.98,inactive
Gpa33,no change with or without drug,1.91,-0.17,2.25,1.11,inactive
Cavin1,no change with or without drug,0.67,0.67,0.34,1,inactive
Sacs,no change with or without drug,-0.11,1.35,-0.9,0.93,inactive
Myl10,no change with or without drug,0.22,0.17,0.22,0.96,inactive
Sytl5,no change with or without drug,-1.57,-0.17,-1.46,0.8,inactive
Slc8a2,no change with or without drug,0,0.17,0,0.94,inactive
Sf3b5,low cell count with doxorubicin only,-3.37,-0.51,-3.15,0.64,active
Or8b36,no change with or without drug,-0.45,-0.17,-0.22,0.9,inactive
Coq5,low cell count with doxorubicin only,-2.02,0.84,-2.47,0.76,active
Sry,no change with or without drug,0.45,0.51,0.22,0.98,inactive
Stmn4,no change with or without drug,-0.45,-0.51,0,0.9,inactive
Anxa8,no change with or without drug,-0.9,0.84,-1.35,0.86,inactive
Slc18a2,low cell count with doxorubicin only,-2.02,-0.34,-1.8,0.76,active
Catsperg2,no change with or without drug,1.35,0.84,0.9,1.06,inactive
Tnp1,no change with or without drug,-1.8,-0.51,-1.46,0.78,inactive
Bik,no change with or without drug,0.45,0,0.56,0.98,inactive
Slc1a3,no change with or without drug,-0.45,-1.18,0.45,0.9,inactive
H2ap,no change with or without drug,-0.9,-0.51,-0.56,0.86,inactive
Notch1,no change with or without drug,1.57,-0.17,1.91,1.08,inactive
Akap3,no change with or without drug,0,-1.69,1.46,0.94,inactive
Ppp4r3b,no change with or without drug,0.9,1.01,0.34,1.02,inactive
Psmd10,no change with or without drug,0.9,0.17,0.9,1.02,inactive
Jchain,no change with or without drug,0.22,0,0.34,0.96,inactive
Il17ra,no change with or without drug,0.67,-1.18,1.8,1,inactive
Gpr18,no change with or without drug,-0.56,-0.84,0.11,0.89,inactive
Or7d10,high cell count without drug only,0.56,2.19,-0.67,0.99,inactive
Tapbpl,no change with or without drug,0,0.84,-0.45,0.94,inactive
Nudt13,no change with or without drug,-1.35,-1.18,-0.56,0.82,inactive
Vpreb1b,no change with or without drug,0.45,0.17,0.45,0.98,inactive
Gdap1l1,no change with or without drug,0,1.18,-0.67,0.94,inactive
Or6f2,no change with or without drug,-0.22,0.34,-0.34,0.92,inactive
Tas2r115,high cell count with doxorubicin only,2.81,1.18,2.14,1.19,inactive
Krtap5-2,high cell count without drug only,1.35,3.2,-0.56,1.06,inactive
Or13c7d,no change with or without drug,0.9,-1.01,1.91,1.02,inactive
Sdad1,no change with or without drug,-0.67,-0.17,-0.45,0.88,inactive
Zmynd10,no change with or without drug,-1.35,-0.51,-1.01,0.82,inactive
Pwwp3b,no change with or without drug,0.45,1.52,-0.45,0.98,inactive
Sgcz,low cell count without drug only,0.22,-2.19,2.14,0.96,inactive
Cdh2,no change with or without drug,-1.35,-0.17,-1.24,0.82,inactive

Looked up above.
For “doxorubicin viability vs non-targeting”, Bik has 0.98
For “combined z-score class”, 4632434I11RIK shows no change with or without drug
Result of Anxa8 under “combined z-score class”: no change with or without drug
Value for Zmynd10 in “doxorubicin viability vs non-targeting”: 0.82
Value for Gpr18 under “viability z-score without drug”: -0.84
For “doxorubicin viability vs non-targeting”, Gdap1l1 shows 0.94
